Paper PMC8437952
Results are given in words; binding and its absence hold for the method and conditions named. Binding seen in cells or lysates may run through a third protein. Some entries that bind do so weakly or less than the wild type.

Sequences of proteins named here, by UniProt entry; tags and fusion partners are left off.
UniProt Q96CV9: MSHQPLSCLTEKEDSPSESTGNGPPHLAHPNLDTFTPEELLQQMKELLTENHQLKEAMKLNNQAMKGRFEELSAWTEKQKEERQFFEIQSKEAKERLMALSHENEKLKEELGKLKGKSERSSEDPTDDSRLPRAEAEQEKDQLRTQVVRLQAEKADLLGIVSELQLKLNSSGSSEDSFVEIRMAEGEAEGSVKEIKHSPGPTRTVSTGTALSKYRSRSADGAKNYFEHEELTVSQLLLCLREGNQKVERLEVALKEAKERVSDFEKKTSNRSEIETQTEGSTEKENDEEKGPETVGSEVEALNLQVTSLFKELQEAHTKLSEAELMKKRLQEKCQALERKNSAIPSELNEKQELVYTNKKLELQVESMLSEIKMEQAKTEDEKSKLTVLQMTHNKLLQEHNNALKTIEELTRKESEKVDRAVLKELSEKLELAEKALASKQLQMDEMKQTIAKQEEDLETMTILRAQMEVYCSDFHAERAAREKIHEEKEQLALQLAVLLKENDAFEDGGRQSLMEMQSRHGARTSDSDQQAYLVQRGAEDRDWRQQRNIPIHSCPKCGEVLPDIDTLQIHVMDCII
UniProt P06492: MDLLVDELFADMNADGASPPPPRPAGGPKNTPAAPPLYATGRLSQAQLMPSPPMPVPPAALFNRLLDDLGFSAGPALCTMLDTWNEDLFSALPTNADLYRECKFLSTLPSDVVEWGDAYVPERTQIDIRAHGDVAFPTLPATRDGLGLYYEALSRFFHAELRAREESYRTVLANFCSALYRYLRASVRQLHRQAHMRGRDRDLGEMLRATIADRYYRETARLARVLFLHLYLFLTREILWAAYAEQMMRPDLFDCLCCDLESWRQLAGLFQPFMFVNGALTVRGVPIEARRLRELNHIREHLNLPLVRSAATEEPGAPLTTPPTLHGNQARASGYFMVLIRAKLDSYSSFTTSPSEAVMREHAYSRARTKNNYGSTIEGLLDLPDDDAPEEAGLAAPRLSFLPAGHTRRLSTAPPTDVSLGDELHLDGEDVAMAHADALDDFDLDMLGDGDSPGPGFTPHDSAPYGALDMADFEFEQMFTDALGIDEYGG

Biological target: FLAG-OPTN (Optineurin) (UniProt Q96CV9)
Assay: co-IP; anti-FLAG (M2) immunoprecipitation from lysates of Optn+/+ HeLa cells expressing FLAG-OPTN and infected with HSV-1 at 1 MOI, sampled over time of infection; IP buffer 250 mM NaCl, 50 mM Tris, 0.5 mM EDTA, 0.5% NP-40; protein A/G beads, 4 °C overnight; immunoblot

Row | Molecule | binding
1 | HSV-1 tegument protein VP16 (from UniProt P06492 1-490) | binds
2 | TANK binding kinase 1 (TBK1) (enzyme, UniProt Q9UHD2 1-729) MQSTSNHLWLLSDILGQGATANVFRGRHKKTGDLFAIKVFNNISFLRPVDVQMREFEVLKKLNHKNIVKLFAIEEETTTRHKVLIMEFCPCGSLYTVLEEPSNAYGLPESEFLIVLRDVVGGMNHLRENGIVHRDIKPGNIMRVIGEDGQSVYKLTDFGAARELEDDEQFVSLYGTEEYLHPDMYERAVLRKDHQKKYGATVDLWSIGVTFYHAATGSLPFRPFEGPRRNKEVMYKIITGKPSGAISGVQKAENGPIDWSGDMPVSCSLSRGLQVLLTPVLANILEADQEKCWGFDQFFAETSDILHRMVIHVFSLQQMTAHKIYIHSYNTATIFHELVYKQTKIISSNQELIYEGRRLVLEPGRLAQHFPKTTEENPIFVVSREPLNTIGLIYEKISLPKVHPRYDLDGDASMAKAITGVVCYACRIASTLLLYQELMRKGIRWLIELIKDDYNETVHKKTEVVITLDFCIRNIEKTVKVYEKLMKINLEAAELGEISDIHTKLLRLSSSQGTIETSLQDIDSRLSPGGSLADAWAHQEGTHPKDRNVEKLQVLLNCMTEIYYQFKKDKAERRLAYNEEQIHKFDKQKLYYHATKAMTHFTDECVKKYEAFLNKSEEWIRKMLHLRKQLLSLTNQCFDIEEEVSKYQEYTNELQETLPQKMFTASSGIKHTMTPIYPSSNTLVEMTLGMKKLKEEMEGVVKELAENNHILERFGSLTMDGGLRNVDCL | binds
